Values quoted from earlier work as cited in patent US4451475A, “Cyclic sulphenamide compounds, their production and their medicinal use” (Bayer Aktiengesellschaft, priority 1981, dated 1984).
At least one structure is not confirmed: it was looked up by name or label, or the drawing left a doubt.

Test system: lipoxygenase; cyclooxygenase
Details: in words; one statement for all four named inhibitors; cited from earlier work

SMILES: NC1=NN(c2cccc(C(F)(F)F)c2)CC1 [3-amino-1-(3-trifluoromethylphenyl)-pyrazoline]
- Selectivity/potency of known inhibitors of lipoxygenase: either simultaneously inhibitors of cyclooxygenase or only active at very high concentrations
